Test results reported in patent US20110045003A1 (SYNOVEX, published 2011).
Residue numbers refer to the chain shown, from its start. In names and notes the source's numbering stands. These are yes or no findings as the source states them, for the method shown. Some results given as binding are weak or reduced against the parent protein; the word gives no strength. For some assays here: Tags and fused reporters may be left off the sequences shown. Values belong to the binder of their own block, whether it stands above or below them.

Legend:
[1] = target: T1, recombinant Cad-11 EC1 human IgG1 fusion protein (R&D Systems Cat. No. 1790-CA-050) (human) (UniProt P55287); test: competition ELISA against biotinylated SYN0012
T1 sequence: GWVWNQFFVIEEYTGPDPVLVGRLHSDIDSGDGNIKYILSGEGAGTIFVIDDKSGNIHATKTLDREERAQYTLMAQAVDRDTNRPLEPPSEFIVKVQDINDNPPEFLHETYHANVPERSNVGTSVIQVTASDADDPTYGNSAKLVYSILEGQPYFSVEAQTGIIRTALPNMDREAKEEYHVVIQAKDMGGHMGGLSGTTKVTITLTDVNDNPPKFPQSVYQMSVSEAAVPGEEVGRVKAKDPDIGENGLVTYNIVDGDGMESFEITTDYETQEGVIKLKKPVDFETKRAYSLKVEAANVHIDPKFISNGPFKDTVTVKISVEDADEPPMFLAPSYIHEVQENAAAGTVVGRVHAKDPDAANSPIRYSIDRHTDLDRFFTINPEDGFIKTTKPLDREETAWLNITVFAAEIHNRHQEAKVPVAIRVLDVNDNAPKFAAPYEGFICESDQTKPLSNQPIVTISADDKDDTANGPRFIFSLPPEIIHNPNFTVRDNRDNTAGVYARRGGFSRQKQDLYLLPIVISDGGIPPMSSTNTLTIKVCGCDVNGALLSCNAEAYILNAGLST

[2] = target: T2, BSA coupled 37-mer Cad-11 peptide encompassing the Cad-11 immunogen (UniProt P55287); test: ELISA, BSA-coupled 37-mer cadherin peptide coated at 500 ng/ml, antibody titrated, A450
T2 sequence (peptide, linked to BSA, looked up): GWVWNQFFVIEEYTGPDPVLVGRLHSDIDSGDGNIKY

[3] = target: T3, BSA coupled 37-mer Cad-18 peptide (sequence corresponding to the Cad-11 immunogen) (UniProt Q13634); test: as above
T3 sequence (peptide, linked to BSA, looked up): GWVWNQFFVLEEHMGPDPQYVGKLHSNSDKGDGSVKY

[4] = target: T4, BSA coupled 37-mer Cad-8 peptide (sequence corresponding to the Cad-11 immunogen) (UniProt P55286); test: as above
T4 sequence (peptide, linked to BSA, looked up): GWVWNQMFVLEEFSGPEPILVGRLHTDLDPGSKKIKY

[5] = target: T1, recombinant Cad-11 EC1 human IgG1 fusion protein (R&D Systems Cat. No. 1790-CA-050) (human); test: competition ELISA: antibody dilution series premixed with biotinylated SYN0012/H1M1 (0.1 µg/ml) on plate-coated recombinant human Cad-11 EC1 fusion protein; OD450 = bound biotinylated SYN0012
[6] = target: T1, recombinant Cad-11 EC1 human IgG1 fusion protein (R&D Systems Cat. No. 1790-CA-050) (human); test: competition ELISA on coated recombinant human Cad-11 EC1 fusion protein; competitor biotinylated SYN0012 at 0.1 µg/ml, streptavidin-HRP, OD450
[7] = target: T5, recombinant his-tagged human Cad-11 (R&D Systems) (human) (UniProt P55287); test: SPR, rhCad-11 immobilised on the chip, SDP051 injected
T5 sequence: T1 sequence

[8] = target: T2, BSA coupled 37-mer Cad-11 peptide encompassing the Cad-11 immunogen; test: ELISA, cadherin peptide coated at 50 ng/ml, antibody titrated, A450

binding [1]: binds
binding [2]: binds
binding [3]: binds
binding [4]: binds
binding [6]: binds
B2: humanized anti-Cad-11 antibody SDP021 (Vκ1/VH2) (antibody, IgG4, V domains shown)
VH: EVQLVQSGAEVKKPGASVKISCKASGYSFTGYFMNWVKQAPGQGLEWIGRINPYTGDTFYNQKFKGRATLTVDKSTSTAYMELSSLRSEDTAVYYCGRLGSRYWYFDVWGQGTTVTVSS
VL: DVLMTQTPLSSPVTLGQPASISCRSSQSIIHSNGNTYLEWYLQKPGQSPQLLIYKVSNRFSGVPDRFTGSGSGTDFTLKISRVEAEDVGVYYCFQGSHVPWTFGQGTKLEIK
notes: humanized IgG4 (S241P), kappa

binding [1]: binds
binding [2]: binds
binding [3]: binds
binding [4]: binds
binding [5]: binds
B4: humanized anti-Cad-11 antibody SDP141 (Vκ3/VH4) (antibody, IgG4, V domains shown)
VH: B2 VH with I20V, K38R, L70I
VL: B2 VL with L3V, T68S
notes: humanized IgG4 (S241P), kappa

binding [1]: binds
binding [2]: binds
binding [3]: binds
binding [4]: binds
binding [5]: binds
B8: humanized anti-Cad-11 antibody SDP101 (Vκ2/VH5) (antibody, IgG4, V domains shown)
VH: B2 VH with I20V, K38R, A68V, L70I
VL: B2 VL with T68S
notes: humanized IgG4 (S241P), kappa

binding [1]: binds
binding [2]: binds
binding [3]: binds
binding [4]: binds
binding [5]: binds
B9: humanized anti-Cad-11 antibody SDP131 (Vκ3/VH3) (antibody, IgG4, V domains shown)
VH: B2 VH with K38R
VL: B2 VL with L3V, T68S
notes: humanized IgG4 (S241P), kappa

binding [1]: binds
binding [2]: binds
binding [3]: binds
binding [4]: binds
binding [6]: binds
B10: humanized anti-Cad-11 antibody SDP041 (Vκ1/VH4) (antibody, IgG4, V domains shown)
VH: B2 VH with I20V, K38R, L70I
VL: B2 VL
notes: humanized IgG4 (S241P), kappa

binding [1]: binds
binding [2]: binds
binding [3]: binds
binding [4]: binds
binding [5]: binds
B12: humanized anti-Cad-11 antibody SDP091 (Vκ2/VH4) (antibody, IgG4, V domains shown)
VH: B2 VH with I20V, K38R, L70I
VL: B2 VL with T68S
notes: humanized IgG4 (S241P), kappa

binding [1]: binds
binding [2]: binds
binding [3]: binds
binding [4]: binds
binding [5]: binds
B13: humanized anti-Cad-11 antibody SDP151 (Vκ3/VH5) (antibody, IgG4, V domains shown)
VH: B2 VH with I20V, K38R, A68V, L70I
VL: B2 VL with L3V, T68S
notes: humanized IgG4 (S241P), kappa

binding [1]: binds
binding [2]: binds
binding [3]: binds
binding [4]: binds
binding [5]: binds
B14: humanized anti-Cad-11 antibody SDP121 (Vκ3/VH2) (antibody, IgG4, V domains shown)
VH: B2 VH
VL: B2 VL with L3V, T68S
notes: humanized IgG4 (S241P), kappa

More lines, now with the values behind:

B1: humanized anti-Cad-11 antibody SDP081 (Vκ2/VH3) (antibody, IgG4, V domains shown)
VH: B2 VH with K38R
VL: B2 VL with T68S
notes: humanized IgG4 (S241P), kappa
binding [1]: binds
binding [2]: binds
binding [3]: binds
binding [4]: binds
binding [5]: binds

B3: humanized anti-Cad-11 antibody SDP111 (Vκ3/VH1) (antibody, IgG4, V domains shown)
VH: B2 VH with A9P, V11L, P41H, T76S, S84V, R87S, T91S
VL: B2 VL with L3V, T68S
notes: humanized IgG4 (S241P), kappa
binding [1]: binds
binding [2]: binds
binding [3]: binds
binding [4]: binds
binding [5]: binds

B5: humanized anti-Cad-11 antibody SDP061 (Vκ2/VH1) (antibody, IgG4, V domains shown)
VH: B2 VH with A9P, V11L, P41H, T76S, S84V, R87S, T91S
VL: B2 VL with T68S
notes: humanized IgG4 (S241P), kappa
binding [1]: binds
binding [2]: binds
binding [4]: binds
binding [5]: binds

B6: humanized anti-Cad-11 antibody SDP011 (Vκ1/VH1) (antibody, IgG4, V domains shown)
VH: B2 VH with A9P, V11L, P41H, T76S, S84V, R87S, T91S
VL: B2 VL
notes: humanized IgG4 (S241P), kappa
binding [1]: binds
binding [2]: binds
binding [3]: binds
binding [4]: binds
binding [6]: binds

B7: humanized anti-Cad-11 EC1 antibody SDP051 (Vκ1/VH5) (antibody, IgG4, V domains shown)
VH: B2 VH with I20V, K38R, A68V, L70I
VL: B2 VL
notes: humanized IgG4 (S241P), kappa
binding [1]: binds
binding [7]: binds
binding [8]: binds
binding [2]: binds
binding [6]: binds

B11: humanized anti-Cad-11 antibody SDP071 (Vκ2/VH2) (antibody, IgG4, V domains shown)
VH: B2 VH
VL: B2 VL with T68S
notes: humanized IgG4 (S241P), kappa
binding [1]: binds
binding [2]: binds
binding [3]: binds
binding [4]: binds
binding [5]: binds

B15: humanized anti-Cad-11 antibody SDP031 (Vκ1/VH3) (antibody, IgG4, V domains shown)
VH: B2 VH with K38R
VL: B2 VL
notes: humanized IgG4 (S241P), kappa
binding [1]: binds
binding [2]: binds
binding [3]: binds
binding [4]: binds
binding [6]: binds
